Measured values as given in the supplement of paper PMC8728848.
Some of the results follow.

How the values were obtained:
Assay in all cases: glycan array binding signal (z-score within array); higher = stronger binding
Conditions in all cases: glycan notation: IUPAC condensed, linker removed
[1] = molecular target: Fuc(a1-2)Gal
Outline: (§1)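 Glycan array binding is given as a within-array Z-score, which can be read as non-binding when negative. The arrays, 3228 of them, came from the Consortium for Functional Glycomics database and were retained only where the protein sequence was available. Z-scores were averaged across arrays of the same protein sequence at different concentrations or buffers and across linkers.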

[2] = molecular target: Fuc(a1-2)Gal(b1-3)GalNAc
Outline: as §1

[3] = molecular target: Fuc(a1-2)Gal(b1-3)GalNAc(a1-3)[Fuc(a1-2)]Gal(b1-4)Glc
Outline: as §1

[4] = molecular target: Fuc(a1-2)Gal(b1-3)GalNAc(a1-3)[Fuc(a1-2)]Gal(b1-4)GlcNAc
Outline: as §1

[5] = molecular target: Fuc(a1-2)Gal(b1-3)GalNAc(b1-3)Gal
Outline: as §1

[6] = molecular target: Fuc(a1-2)Gal(b1-3)GalNAc(b1-3)Gal(a1-4)Gal(b1-4)Glc
Outline: as §1

[7] = molecular target: Fuc(a1-2)Gal(b1-3)GalNAc(b1-4)[Neu5Ac(a2-3)]Gal(b1-4)Glc
Outline: as §1

[8] = molecular target: Fuc(a1-2)Gal(b1-3)GlcNAc
Outline: as §1

[9] = molecular target: Fuc(a1-2)Gal(b1-3)GlcNAc(b1-2)Man(a1-3)[Fuc(a1-2)Gal(b1-3)GlcNAc(b1-2)Man(a1-6)]Man(b1-4)GlcNAc(b1-4)GlcNAc
Outline: as §1

[10] = molecular target: Fuc(a1-2)Gal(b1-3)GlcNAc(b1-2)Man(a1-3)[Fuc(a1-2)Gal(b1-3)GlcNAc(b1-2)Man(a1-6)]Man(b1-4)GlcNAc(b1-4)[Fuc(a1-6)]GlcNAc
Outline: as §1

[11] = molecular target: Fuc(a1-2)Gal(b1-3)GlcNAc(b1-3)Gal(b1-4)Glc
Outline: as §1

[12] = molecular target: Fuc(a1-2)Gal(b1-3)GlcNAc(b1-3)GalNAc
Outline: as §1

[13] = molecular target: Fuc(a1-2)Gal(b1-3)GlcNAc(b1-3)[Fuc(a1-2)Gal(b1-3)GlcNAc(b1-6)]GalNAc
Outline: as §1

[14] = molecular target: Fuc(a1-2)Gal(b1-3)GlcNAc(b1-3)[Gal(b1-4)GlcNAc(b1-6)]Gal(b1-4)Glc
Outline: as §1

[15] = molecular target: Fuc(a1-2)Gal(b1-3)GlcNAc(b1-3)[Neu5Ac(a2-6)Gal(b1-4)GlcNAc(b1-6)]Gal(b1-4)Glc
Outline: as §1

[16] = molecular target: Fuc(a1-2)Gal(b1-3)GlcNAc6S
Outline: as §1

[17] = molecular target: Fuc(a1-2)Gal(b1-3)[Fuc(a1-4)]GlcNAc
Outline: as §1

[18] = molecular target: Fuc(a1-2)Gal(b1-3)[Fuc(a1-4)]GlcNAc(b1-2)Man(a1-3)[Fuc(a1-2)Gal(b1-3)[Fuc(a1-4)]GlcNAc(b1-2)Man(a1-3)]Man(b1-4)GlcNAc(b1-4)GlcNAc
Outline: as §1

[19] = molecular target: Fuc(a1-2)Gal(b1-3)[Fuc(a1-4)]GlcNAc(b1-2)Man(a1-3)[Fuc(a1-2)Gal(b1-3)[Fuc(a1-4)]GlcNAc(b1-2)Man(a1-6)]Man(b1-4)GlcNAc(b1-4)[Fuc(a1-6)]GlcNAc(b1-4)[Fuc(a1-6)]GlcNAc
Outline: as §1

[20] = molecular target: Fuc(a1-2)Gal(b1-3)[Fuc(a1-4)]GlcNAc(b1-3)[Fuc(a1-3)[Gal(b1-4)]GlcNAc(b1-6)]Gal(b1-4)Glc
Outline: as §1

[21] = molecular target: Fuc(a1-2)Gal(b1-3)[Fuc(a1-4)]GlcNAc(b1-3)[Gal(b1-4)GlcNAc(b1-6)]Gal(b1-4)Glc
Outline: as §1

[22] = molecular target: Fuc(a1-2)Gal(b1-4)Fuc(a1-3)]GlcNAc(b1-2)Man(a1-3)[Fuc(a1-2)Gal(b1-4)[Fuc(a1-3)]GlcNAc(b1-2)Man(a1-6)]Man(b1-4)GlcNAc(b1-4)GlcNAc
Outline: as §1

[23] = molecular target: Fuc(a1-2)Gal(b1-4)Glc
Outline: as §1

[24] = molecular target: Fuc(a1-2)Gal(b1-4)Glc6S
Outline: as §1

[25] = molecular target: Fuc(a1-2)Gal(b1-4)GlcNAc
Outline: as §1

[26] = molecular target: Fuc(a1-2)Gal(b1-4)GlcNAc(b1-2)Man
Outline: as §1

[27] = molecular target: Fuc(a1-2)Gal(b1-4)GlcNAc(b1-2)Man(a1-3)[Fuc(a1-2)Gal(b1-4)GlcNAc(b1-2)Man(a1-6)]Man(b1-4)GlcNAc(b1-4)GlcNAc
Outline: as §1

[28] = molecular target: Fuc(a1-2)Gal(b1-4)GlcNAc(b1-2)Man(a1-3)[Fuc(a1-2)Gal(b1-4)GlcNAc(b1-2)Man(a1-6)]Man(b1-4)GlcNAc(b1-4)[Fuc(a1-6)]GlcNAc
Outline: as §1

[29] = molecular target: Fuc(a1-2)Gal(b1-4)GlcNAc(b1-2)[Fuc(a1-2)Gal(b1-4)GlcNAc(b1-4)]Man(a1-3)[Fuc(a1-2)Gal(b1-4)GlcNAc(b1-2)Man(a1-6)]Man(b1-4)GlcNAc(b1-4)GlcNAc
Outline: as §1

[30] = molecular target: Fuc(a1-2)Gal(b1-4)GlcNAc(b1-3)Gal(b1-4)GlcNAc
Outline: as §1

B1: OS9-MRH (Homo sapiens), Q13438 (protein)
chain: IPELLSPMRDAPCLLKTKDWWTYEFCYGRHIQQYHMEDSEIKGEVLYLGYYQSAFDWDDETAKASKQHRLKRYHSQTYGNGSKCDLNGRPREAEVRFLCDEGAGISGDYIDRVDEPLSCSYVLTIRTPRLCPHPLLRPPPSAAPQAI
Which “glycan array binding signal (z-score)” value [1] does the source give for B1 here?
Its value is 0.871.

And the “glycan array binding signal (z-score)” value [2]?
Its value is -0.509.

What about the “glycan array binding signal (z-score)” value [3] of the same binder?
The value was 0.724.

And the “glycan array binding signal (z-score)” value [4]?
The value was 0.485.

What about the “glycan array binding signal (z-score)” value [5] of the same binder?
The value was 0.513.

What about the “glycan array binding signal (z-score)” value [6] of the same binder?
The value was -0.271.

What about the “glycan array binding signal (z-score)” value [7] of the same binder?
Its value is 0.061.

What about the “glycan array binding signal (z-score)” value [8] of the same binder?
The value was 1.35.

What about the “glycan array binding signal (z-score)” value [9] of the same binder?
Its value is 0.554.

And the “glycan array binding signal (z-score)” value [10]?
Its value is -0.758.

What about the “glycan array binding signal (z-score)” value [11] of the same binder?
The value was 0.221.

What about the “glycan array binding signal (z-score)” value [12] of the same binder?
Its value is 0.497.

What about the “glycan array binding signal (z-score)” value [13] of the same binder?
Its value is -0.514.

And the “glycan array binding signal (z-score)” value [14]?
The value was -0.798.

What about the “glycan array binding signal (z-score)” value [15] of the same binder?
The value was 0.616.

And the “glycan array binding signal (z-score)” value [16]?
Its value is 3.15.

What about the “glycan array binding signal (z-score)” value [17] of the same binder?
The value was -1.22.

What about the “glycan array binding signal (z-score)” value [18] of the same binder?
Its value is -1.15.

What about the “glycan array binding signal (z-score)” value [19] of the same binder?
Its value is 0.415.

And the “glycan array binding signal (z-score)” value [20]?
The value was 0.3.

And the “glycan array binding signal (z-score)” value [21]?
Its value is 0.55.

And the “glycan array binding signal (z-score)” value [22]?
Its value is 0.606.

What about the “glycan array binding signal (z-score)” value [23] of the same binder?
Its value is -0.321.

What about the “glycan array binding signal (z-score)” value [24] of the same binder?
The value was -0.942.

And the “glycan array binding signal (z-score)” value [25]?
Its value is -0.627.

And the “glycan array binding signal (z-score)” value [26]?
The value was -0.95.

And the “glycan array binding signal (z-score)” value [27]?
The value was -0.159.

What about the “glycan array binding signal (z-score)” value [28] of the same binder?
Its value is -0.83.

And the “glycan array binding signal (z-score)” value [29]?
The value was -1.2.

What about the “glycan array binding signal (z-score)” value [30] of the same binder?
The value was -1.1.
